Measurements as given in paper PMC3840788, “The role of Cdc42 and Gic1 in the regulation of septin filament formation and dissociation” (eLife, 2013).
No constants are given. Whether binding was seen depends on the method and setting.

How the values were obtained:
[1] = target: T1, Cdc12 (subunit of the purified yeast septin complex) (yeast (S. cerevisiae)) (UniProt P32468); assay: negative-stain electron microscopy with single particle analysis; 0.3 µM septin hetero-oligomers, alone or with 1.5 µM Gic1, dialysed overnight at 4°C from high-salt buffer against low-salt buffer (100 mM NaCl, 20 mM Tris-HCl pH 7.5, 1 mM DTT); antibody labelling against Cdc11; adsorbed to a lipid monolayer; both purified
T1 sequence: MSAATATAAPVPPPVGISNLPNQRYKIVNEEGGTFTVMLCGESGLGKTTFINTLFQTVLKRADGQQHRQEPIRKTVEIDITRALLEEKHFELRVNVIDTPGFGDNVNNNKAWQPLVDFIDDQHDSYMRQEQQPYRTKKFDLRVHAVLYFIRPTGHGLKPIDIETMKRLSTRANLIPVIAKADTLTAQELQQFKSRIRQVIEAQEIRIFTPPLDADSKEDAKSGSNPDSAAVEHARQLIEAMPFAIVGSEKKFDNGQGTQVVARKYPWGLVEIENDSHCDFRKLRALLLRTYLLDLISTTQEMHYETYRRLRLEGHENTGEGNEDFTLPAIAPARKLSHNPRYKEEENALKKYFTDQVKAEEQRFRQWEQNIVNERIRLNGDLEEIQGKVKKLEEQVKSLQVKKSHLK

[2] = target: T2, septin-Cdc10Δ complex (Cdc3, Cdc11, Cdc12) (yeast (S. cerevisiae)) (UniProt P32457+P32458+P32468); assay: condition: 1.5 µM Gic1, 0.3 µM septin hetero-oligomers; negative-stain electron microscopy with single particle analysis; 0.3 µM septin hetero-oligomers, alone or with 1.5 µM Gic1, dialysed overnight at 4°C from high-salt buffer against low-salt buffer (100 mM NaCl, 20 mM Tris-HCl pH 7.5, 1 mM DTT); antibody labelling against Cdc11; adsorbed to a lipid monolayer; both purified
T2 sequence 1: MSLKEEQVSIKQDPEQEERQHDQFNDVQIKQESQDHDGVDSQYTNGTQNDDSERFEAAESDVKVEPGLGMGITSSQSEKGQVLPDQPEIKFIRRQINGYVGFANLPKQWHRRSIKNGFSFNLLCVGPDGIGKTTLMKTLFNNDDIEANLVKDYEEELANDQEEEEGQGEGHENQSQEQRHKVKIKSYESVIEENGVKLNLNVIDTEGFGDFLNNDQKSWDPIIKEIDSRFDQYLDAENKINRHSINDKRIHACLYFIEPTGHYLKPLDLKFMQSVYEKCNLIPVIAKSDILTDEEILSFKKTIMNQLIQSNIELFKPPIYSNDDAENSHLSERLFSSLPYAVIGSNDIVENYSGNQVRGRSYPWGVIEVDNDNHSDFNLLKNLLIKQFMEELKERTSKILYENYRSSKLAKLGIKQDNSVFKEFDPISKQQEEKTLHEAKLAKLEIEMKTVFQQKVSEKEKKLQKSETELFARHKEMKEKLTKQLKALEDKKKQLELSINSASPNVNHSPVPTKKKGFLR
T2 sequence 2: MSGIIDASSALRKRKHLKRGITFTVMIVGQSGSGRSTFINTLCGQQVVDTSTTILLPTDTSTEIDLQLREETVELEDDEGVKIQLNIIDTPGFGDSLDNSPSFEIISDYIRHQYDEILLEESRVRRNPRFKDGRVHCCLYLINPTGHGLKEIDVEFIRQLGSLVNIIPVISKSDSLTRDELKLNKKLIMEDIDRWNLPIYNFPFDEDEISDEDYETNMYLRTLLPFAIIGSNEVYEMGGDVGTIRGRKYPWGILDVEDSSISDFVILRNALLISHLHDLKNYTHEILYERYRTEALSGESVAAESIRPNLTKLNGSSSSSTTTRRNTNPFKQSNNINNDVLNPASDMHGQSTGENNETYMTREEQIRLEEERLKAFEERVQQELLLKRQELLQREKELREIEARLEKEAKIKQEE
T2 sequence 3: T1 sequence

binding [1]: no binding
binding [2]: no binding
B1: Gic1(104-314) (domain or fragment, yeast (S. cerevisiae), UniProt P38785 104-314, looked up)
chain: MFKKKDLLSRRHGSAKTAKQSSISTPFDFHHISHANGKREDNPLESHEEKHDVESLVKFTSLAPQPRPDSNVSSKYSNVVMNDSSRIVSSSTIATTMDSHHDGNETNNTPNGNKQLDSPTDLEMTLEDLRNYTFPSVLGDSVSEKTNPSSPSVSSFSGKFKPRELSALHTPELGNCFNVDQSLNSPGNRISVDDVLKFYYQCSETSTPRNT
notes: Gic1, yeast, residues 104-314 (N-terminal 103 amino acids deleted); gic1(310-942) in nucleotides; contains the CRIB domain and the C-terminus; Called simply Gic1 throughout the text; The methods say GST was cleaved with thrombin; Dimer by gel filtration; source: E. coli BL21 (DE3) Rosetta, purified (Ni-NTA, glutathione sepharose, Superdex S200)
